According to US20080182822A1, “Liquid Pharmaceutical Compositions Comprising a Bisphosphonate Compound” (Besins Healthcare SA, priority 2006, published 2008):
Where “and” joins values, the source holds several entries; their conditions need not be identical. Equal values may be shown once. Read-outs that look alike come from different tables or passages of the source.

How the values were obtained:
[1] = rat
[2] = rat, published data, Lin et al. 1999; cited from earlier work
[3] = In vitro dermal absorption, static diffusion cell (Franz cell)
[4] = buffered solution, compared to 100% phosphate buffer solution, FIG. 10 / FIG. 11

Row | Structure (SMILES) | Urinary Excretion, Total Excretion (% of Dose), 0-168 hours ([1]; dermal 1.9 mg (Group 2), individual animals) | Urinary Excretion, Total Excretion (% of Dose), 0-168 hours ([1]; in vivo, iv, 0.2 mg/kg) | Urinary Excretion, Total Excretion (% of Dose), 0-168 hours ([1]; intravenous 0.2 mg/kg (Group 1), individual animals, 0.2 mg/kg) | urinary recovery after IV administration [2] [%] | effect of glycerine on the amount recovered in the receptor fluid and the dermis ([3]; FIG. 12 / FIG. 13) | effect of propylene glycol (PG) on the amount recovered [3, 4] | effect of urea on the amount recovered in the receptor fluid and the skin/dermis [3, 4] | effect of the alcohol content in the formulation on the percentage of absorption ([3]; ethanol/water versus pure aqueous compositions, FIG. 4) | in vitro absorption in rats versus in humans ([3]; higher in rats than in humans) [fold] | effect of menthol on the amount recovered in the receptor fluid and dermis ([3]; menthol at 90% of saturating concentration in 90/10 phosphate buffer/ethanol, compared to pure phosphate buffer solution, FIG. 6 / FIG. 7) | recovery in the receptor fluid and the dermis at 24 hrs (crossing of the skin) ([3]; water/alcohol compositions, FIG. 1 / FIG. 2) | effect of the increase in alcohol content on absorption, as percentage of the dose applied ([3]; water/alcohol ratios, FIG. 1 / FIG. 2) | Urinary Excretion, Total Excretion (% of Dose), 0-168 hours ([1]; dermal 1.9 mg (Group 2), Mean)
1 | NCCCC(O)(P(=O)(O)O)P(=O)(O)O [14C-alendronate] | 0.48% of Dose and 0.22% of Dose and 0.24% of Dose and 0.19% of Dose and 0.62% of Dose | 10.1% of Dose | 4.4% of Dose and 6.5% of Dose |  |  |  |  |  |  |  |  |  | 
2 | NCCCC(O)(P(=O)(O)O)P(=O)(O)O [alendronate, 4-amino-1-hydroxybutylidene-1,1-bisphosphonic acid] |  |  |  | 36 | neutral effect | tends to reduce | neutral effect | does not detrimentally affect | 10 | does not increase | does cross the skin | not significantly modified | 0.4 % of Dose
